PubChem BioAssay AID1259254 – NCATS | 2017
Test: 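Finding genes that stop cells copying their DNA twice in one cycle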 (primary screen). Cells: human HCT116 colorectal cancer cells. Reagents: single siRNA against human genes. Timing: 3 days. Read-out: 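Nuclei stained with Hoechst and imaged; cell-cycle phase assigned by DNA content; G2 share scaled per plate, non-targeting siRNA 0%, GMNN siRNA 100%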. Direction: G2 robust z-score and G2 cells, % of GMNN control: higher = more G2 cells, more excess DNA replication; raw share of cells in G2: higher = larger share of cells with G2 DNA content. Rule for the call: 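Active siRNAs have a G2 robust z of 5 or more median absolute deviations over the median, which in these data means about 38% or higher of GMNN control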.
This is an unselected part of about 59,000 deposited reagents. Of all reagents, about 1,550 (2.6%) got an active call. 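G2 share is only a proxy for re-replication; each gene was hit by three separate siRNAs, and active genes were retested.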 The raw values are shown without normalisation. The numbers tell different reagents against one gene apart. Not given: the amount of reagent.

gene symbol,reagent no.,G2 robust z-score,"G2 cells, % of GMNN control",raw share of cells in G2 (%),activity call
CYP11A1,1,0.171,4.17,5.53,inactive
CYP11A1,2,-0.93,-3.57,3.69,inactive
CYP11A1,3,4.07,31.6,16.2,inactive
LOC107984399,1,-1.18,-5.35,1.88,inactive
LOC107984399,2,0.998,9.99,6.54,inactive
LOC107984399,3,-0.497,-0.527,2.9,inactive
SAMD9,1,-0.335,0.61,3.82,inactive
SAMD9,2,1.28,12,9.32,inactive
SAMD9,3,0.829,8.8,6.1,inactive
PPIP5K1,1,-1.15,-5.16,3,inactive
PPIP5K1,2,-0.48,-0.409,3.77,inactive
PPIP5K1,3,0.21,4.45,5.02,inactive
MEOX2,1,1.92,16.5,12,inactive
MEOX2,2,0.409,5.85,7.62,inactive
MEOX2,3,-1.01,-4.11,1.84,inactive
ZNF92,1,-0.932,-3.59,1.86,inactive
ZNF92,2,0.201,4.38,4.69,inactive
ZNF92,3,-0.403,0.134,3.57,inactive
ATP5MG,1,0.0371,3.23,7.75,inactive
ATP5MG,2,4.81,36.8,21.7,inactive
ATP5MG,3,-0.417,0.0362,3.85,inactive
MYADM,1,1.06,10.4,8.49,inactive
MYADM,2,-0.783,-2.54,2.2,inactive
MYADM,3,1.41,12.9,7.02,inactive
MAFF,1,-0.742,-2.25,3.44,inactive
MAFF,2,-1.13,-4.97,3.91,inactive
MAFF,3,-0.344,0.547,4.17,inactive
APBB2,1,-1.12,-4.91,3,inactive
APBB2,2,-1.11,-4.82,2.32,inactive
APBB2,3,1.37,12.6,8.47,inactive

Laid out differently: entries from further up
gene symbol | reagent no. | G2 robust z-score | G2 cells, % of GMNN control | raw share of cells in G2 (%) | activity call
ZNF92 | 2 | 0.201 | 4.38 | 4.69 | inactive
ZNF92 | 3 | -0.403 | 0.134 | 3.57 | inactive
ATP5MG | 1 | 0.0371 | 3.23 | 7.75 | inactive
ATP5MG | 2 | 4.81 | 36.8 | 21.7 | inactive
